From publication PMC7407982 come the findings set out here.

The exact form of at least one protein or probe is not confirmed. For some of these results: A negative result means that nothing was seen under these conditions. For some of these results: At least one verdict was read from the data and is not stated in words by the source.

For data set [1], the target named is cardiac troponin I (cTnI) (UniProt P19429). Kind of data set: binding assay. The following applies: Kd method not stated, 3'-(CH2)6-SH thiol, SERS sandwich: 300 mM NaCl, 20 mM Tris-HCl, 0.5 mM beta-mercaptoethanol, 20% (w/v) glycerol, 0.05% Tween 20, pH 8.0 (or with 20% human serum), 35 °C, 6 h, single-stranded DNA.
A further data set has as its system troponin T (TnT). Kind of data set: SERS sandwich on Au nanoplate. To be noted: 10 pM protein, reporter N2, negligible signal, slightly above blank; 3'-(CH2)6-SH thiol; SERS sandwich: 300 mM NaCl, 20 mM Tris-HCl, 0.5 mM beta-mercaptoethanol, 20% (w/v) glycerol, 0.05% Tween 20, pH 8.0 (or with 20% human serum), 35 °C, 6 h; commercial protein; single-stranded DNA.

For data set [2], the target named is cardiac troponin I (cTnI) (UniProt P19429). Kind of data set: SERS sandwich on Au nanoplate. The following applies: reporter on Au NP binds cTnI captured by N1; 3'-(CH2)6-SH thiol; SERS sandwich: 300 mM NaCl, 20 mM Tris-HCl, 0.5 mM beta-mercaptoethanol, 20% (w/v) glycerol, 0.05% Tween 20, pH 8.0 (or with 20% human serum), 35 °C, 6 h; label: 5'-Cy5; single-stranded DNA.

Turning to “CGCATGCCAAACGTTGCCTCATAGTTCCCTCCCCGTGTCC [Probe aptamer]”, the Kd in data set [1] (text instead gives 3.10 nM for probe-cTnI) came out at 0.317 nM. Also, in the data set on troponin T (TnT), the binding result was “no binding”.

In the case of “CGTGCAGTACGCCAACCTTTCTCATGCGCTGCCCCTCTTA [Reporter aptamer]”, the Kd in data set [1] (text instead gives 3.37 nM for reporter-cTnI, label: 5'-Cy5) is 0.27 nM. The binding result in data set [2] is “binds”.
